Measurements published in paper doi:10.1101/2025.05.28.656585.
Where two headings read alike, the source gives them in different places. No constants are given. Whether binding was seen depends on the method and setting. Binding seen in cells or lysates may run through a third protein. Some binding calls cover weakened binding; strength is not graded here. Sequences can lack the tags named with a protein.

Chains of the proteins cited; added tags and fusions are not shown. Lines headed by an entry give the natural chain unless they say otherwise; changes in a name come on top.
UniProt O18333, whole entry, looked up, stated change not applied: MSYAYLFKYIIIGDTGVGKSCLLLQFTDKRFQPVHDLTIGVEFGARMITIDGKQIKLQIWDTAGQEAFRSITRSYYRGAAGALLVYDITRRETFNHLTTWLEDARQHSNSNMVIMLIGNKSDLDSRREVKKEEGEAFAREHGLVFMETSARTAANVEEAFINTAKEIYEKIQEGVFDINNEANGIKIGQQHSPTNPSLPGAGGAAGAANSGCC

T1: HA-tagged Syd fragment N2 (Syd 1-529) (Drosophila) (UniProt Q9GQF1)
T1 sequence: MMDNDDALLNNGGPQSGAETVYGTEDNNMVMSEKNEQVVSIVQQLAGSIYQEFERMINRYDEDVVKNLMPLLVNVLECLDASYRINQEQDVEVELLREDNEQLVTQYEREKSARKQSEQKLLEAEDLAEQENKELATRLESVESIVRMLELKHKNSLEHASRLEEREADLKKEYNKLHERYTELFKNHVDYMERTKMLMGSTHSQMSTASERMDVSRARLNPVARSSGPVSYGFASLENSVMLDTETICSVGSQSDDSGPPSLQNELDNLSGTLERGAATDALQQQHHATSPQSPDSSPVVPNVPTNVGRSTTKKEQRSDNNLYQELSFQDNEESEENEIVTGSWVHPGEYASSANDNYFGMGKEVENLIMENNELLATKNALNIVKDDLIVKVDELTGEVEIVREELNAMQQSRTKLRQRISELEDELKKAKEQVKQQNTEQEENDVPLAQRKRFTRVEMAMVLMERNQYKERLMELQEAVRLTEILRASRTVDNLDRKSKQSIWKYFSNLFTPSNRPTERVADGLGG

T2: HA-tagged Syd fragment N4 (Syd 1-485) (Drosophila) (UniProt Q9GQF1)
T2 sequence: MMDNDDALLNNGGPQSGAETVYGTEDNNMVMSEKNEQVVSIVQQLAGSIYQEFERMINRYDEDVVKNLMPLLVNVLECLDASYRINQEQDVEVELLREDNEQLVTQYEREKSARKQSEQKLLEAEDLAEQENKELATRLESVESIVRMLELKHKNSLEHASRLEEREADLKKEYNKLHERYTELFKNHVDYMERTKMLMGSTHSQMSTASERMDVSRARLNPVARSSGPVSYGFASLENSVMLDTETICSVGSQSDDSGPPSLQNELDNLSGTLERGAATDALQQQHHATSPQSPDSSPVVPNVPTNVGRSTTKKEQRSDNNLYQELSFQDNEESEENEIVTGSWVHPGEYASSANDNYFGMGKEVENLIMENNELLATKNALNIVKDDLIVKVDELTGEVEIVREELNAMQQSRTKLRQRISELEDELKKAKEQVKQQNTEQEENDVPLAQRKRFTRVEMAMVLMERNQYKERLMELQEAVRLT

T3: HA-tagged Syd fragment N5 (RH1-LZI region only) (Drosophila) (UniProt Q9GQF1)
T3 sequence: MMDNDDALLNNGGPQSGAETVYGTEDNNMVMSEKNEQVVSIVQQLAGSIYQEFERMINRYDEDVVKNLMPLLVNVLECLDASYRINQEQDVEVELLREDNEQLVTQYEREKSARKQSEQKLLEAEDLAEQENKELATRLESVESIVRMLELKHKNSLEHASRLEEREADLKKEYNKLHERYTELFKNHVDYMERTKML

B1: V5-tagged dynein light intermediate chain (DLIC) (protein, UniProt Q9VZ20 1-493)
chain: MAMNSGTQTNALTSSFTMKKKDAAAEKENLWSAILNEVQTQGSTKLPSNKSVLVLGDNATGKTTLIAKLQGVEDPKKGSGLEYAYIDVKDEYRDDMTRLGVWVLDGDPGHTNLLHYALNETNYAHTLVILTVSMTQPWGWLEQLNHWIKVLGQHIDSLQLDAKEKEAARQRLTTTWQSYCEVGDDLDPGSPVKRTMRNNSIDEDDLLPLTEDALITNLGLDIVVVVTKTDYMTTLEKEYEYRDEHFDFIQQWIRNFCLRHGTSLFYTSVKEDKNCDVLYKYLTHRIYGLPFRTPALVVEKDAVLIPAGWDSLKKISILYENMHGVKAENPYTDIIKSPPTRKAVSNREAEVQTEDEQAFLARQQEILKQGDQVRGESPLRSQGVGSNKSGPRTPGTTGQSSPKKIDPKLTPATPGAEGVLANFFNSLLHKKSGSPGTGGPGGAGNPAGPGRTANGTDAVMTPEKLAVRTDAAAELDRLSRSVKKEIDMSQSEC

Columns and labels:
Assay in all cases: co-IP
[1] = target: T1, HA-tagged Syd fragment N2 (Syd 1-529) (Drosophila)
[2] = target: T2, HA-tagged Syd fragment N4 (Syd 1-485) (Drosophila)
[3] = target: T3, HA-tagged Syd fragment N5 (RH1-LZI region only) (Drosophila)
[4] = target: T1, HA-tagged Syd fragment N2 (Syd 1-529) (Drosophila); remark: listed apart in the source
[5] = target: T2, HA-tagged Syd fragment N4 (Syd 1-485) (Drosophila); remark: listed apart in the source

Molecule | binding [1] | binding [2] | binding [3] | binding [4] | binding [5]
myc-tagged Rab2 Q65L (from UniProt O18333 1-213) | binds | no binding |  |  | 
B1 |  |  | binds | binds | binds
